This note sets out measurements from patent EP4737450A1 (Longwood Pharmaceuticals (Hangzhou) Co., Ltd, priority 2023, dated 2025).

Protein sequences, listed by entry. Tags and fused reporters are not part of them. Residues count along the entry.
UniProt P03952, 391-638 limits assumed: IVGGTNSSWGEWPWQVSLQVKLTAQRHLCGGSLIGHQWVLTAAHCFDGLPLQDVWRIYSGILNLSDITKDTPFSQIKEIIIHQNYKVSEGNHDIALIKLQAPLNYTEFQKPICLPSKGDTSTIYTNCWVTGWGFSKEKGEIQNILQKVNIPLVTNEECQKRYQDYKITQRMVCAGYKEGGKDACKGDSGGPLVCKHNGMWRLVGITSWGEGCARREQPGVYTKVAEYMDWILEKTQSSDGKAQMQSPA
UniProt P03952, 20-390 partner limits assumed: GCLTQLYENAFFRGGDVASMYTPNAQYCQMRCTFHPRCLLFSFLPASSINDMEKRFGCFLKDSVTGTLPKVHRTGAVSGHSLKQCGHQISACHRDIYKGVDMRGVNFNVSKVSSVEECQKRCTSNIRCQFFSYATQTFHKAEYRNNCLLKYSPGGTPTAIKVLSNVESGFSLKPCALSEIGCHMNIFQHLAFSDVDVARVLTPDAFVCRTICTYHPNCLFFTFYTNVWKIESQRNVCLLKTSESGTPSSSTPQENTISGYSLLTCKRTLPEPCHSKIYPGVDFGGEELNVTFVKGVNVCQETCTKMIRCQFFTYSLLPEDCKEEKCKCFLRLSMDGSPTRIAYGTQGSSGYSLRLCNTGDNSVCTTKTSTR

For the assay, the target named is plasma kallikrein (PKa) (Homo sapiens, UniProt P03952). The assay is described as follows: Inhibitory activity against plasma kallikrein in vitro (fluorescence intensity enzyme assay, Pro-Phe-Arg-AMC substrate). It counts as biochemical. Particulars: read-out: PKa IC50.

Structures are written as SMILES. The match of structure and compound is tentative.

One may read the IC50 as the concentration that gives 50% inhibition.

`COCc1nn(Cc2ccc(Oc3ccccc3)cc2)cc1C(=O)NCc1cn2c(n1)CNCC2`: the IC50 is above 1000 nM.
